Laboratory results: article PMC9928464
These are yes or no findings as the source states them, for the method shown. Binding seen in cells or lysates may run through a third protein. Some entries that bind do so weakly or less than the wild type.

Chains of the proteins cited; added tags and fusions are not shown. Lines headed by an entry give the natural chain unless they say otherwise; changes in a name come on top. Residues count along the entry.
UniProt O14763, residues 56-240: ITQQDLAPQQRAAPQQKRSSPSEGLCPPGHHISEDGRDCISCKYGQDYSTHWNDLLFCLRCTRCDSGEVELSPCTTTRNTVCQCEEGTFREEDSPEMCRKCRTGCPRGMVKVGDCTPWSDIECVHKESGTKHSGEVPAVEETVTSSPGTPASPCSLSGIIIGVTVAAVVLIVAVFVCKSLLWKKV

Target: DR5ΔCD (1–240), death receptor 5 without a cytoplasmic domain, fused to EGFP or TagRFP (UniProt O14763)
Test: FRET or BRET; time-resolved FRET (donor fluorescence lifetime, plate reader) in live HEK293 cells transiently expressing DR5ΔCD-GFP alone or DR5ΔCD-GFP with DR5ΔCD-RFP (1:6), no ligand; cells in PBS, room temperature; also treated with DMSO, bioymifi or nimesulide

Question: With “DR5ΔCD (1–240), death receptor 5 without a cytoplasmic domain, fused to EGFP or TagRFP (from UniProt O14763 56-240) (domain or fragment)” as the substance, how does the binding read?
Answer: Its binding is “binds”.
